Laboratory results published in paper PMC12162846.

Sequences of proteins named here, by UniProt entry; tags and fusion partners are left off. A change or cut given only in a name is not applied to a line headed by its entry.
UniProt Q00987: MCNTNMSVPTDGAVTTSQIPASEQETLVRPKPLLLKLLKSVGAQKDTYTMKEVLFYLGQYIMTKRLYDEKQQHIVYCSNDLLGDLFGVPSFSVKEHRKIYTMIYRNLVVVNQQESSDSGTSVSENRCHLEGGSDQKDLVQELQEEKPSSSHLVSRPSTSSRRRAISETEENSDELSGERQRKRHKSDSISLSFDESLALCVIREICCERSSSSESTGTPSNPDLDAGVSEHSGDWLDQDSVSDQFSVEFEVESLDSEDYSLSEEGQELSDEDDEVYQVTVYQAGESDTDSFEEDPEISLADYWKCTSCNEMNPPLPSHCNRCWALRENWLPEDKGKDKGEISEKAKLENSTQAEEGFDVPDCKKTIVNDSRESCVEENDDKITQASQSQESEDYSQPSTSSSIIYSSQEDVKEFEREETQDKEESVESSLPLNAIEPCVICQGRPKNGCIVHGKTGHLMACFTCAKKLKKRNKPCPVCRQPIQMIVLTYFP

Experiments:
[1] = biological target: T1, Tripartite motif-containing protein 26 (endogenous) (human (endogenous in HCT116)) (UniProt Q12899); experiment: co-IP; endogenous proteins of HCT116 p53+/+ cells; precipitated with TRIM26, p53 or MDM2 antibodies, Western blot
T1 sequence: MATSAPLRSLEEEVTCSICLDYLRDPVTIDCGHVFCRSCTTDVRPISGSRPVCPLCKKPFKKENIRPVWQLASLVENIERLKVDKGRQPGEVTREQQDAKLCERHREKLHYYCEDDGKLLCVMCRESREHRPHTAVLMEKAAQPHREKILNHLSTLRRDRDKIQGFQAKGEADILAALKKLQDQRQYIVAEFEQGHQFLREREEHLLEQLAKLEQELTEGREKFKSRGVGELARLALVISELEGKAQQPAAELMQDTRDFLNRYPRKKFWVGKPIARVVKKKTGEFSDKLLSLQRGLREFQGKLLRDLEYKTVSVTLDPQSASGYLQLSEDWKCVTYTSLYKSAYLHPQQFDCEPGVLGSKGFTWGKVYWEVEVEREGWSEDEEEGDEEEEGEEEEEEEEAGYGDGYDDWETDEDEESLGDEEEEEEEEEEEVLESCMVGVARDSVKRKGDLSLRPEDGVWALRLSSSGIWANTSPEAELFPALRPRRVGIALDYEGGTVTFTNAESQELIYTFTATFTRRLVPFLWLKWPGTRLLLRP

[2] = biological target: T2, GST-TRIM26 N-terminal domain (aa1-300) containing the coiled-coil domain (UniProt Q12899); experiment: pull-down; GST-TRIM26 fragments on beads, incubated with His-p53 or His-MDM2 at RT for 40 min; bound protein detected by Western blot with His antibody; both purified
T2 sequence: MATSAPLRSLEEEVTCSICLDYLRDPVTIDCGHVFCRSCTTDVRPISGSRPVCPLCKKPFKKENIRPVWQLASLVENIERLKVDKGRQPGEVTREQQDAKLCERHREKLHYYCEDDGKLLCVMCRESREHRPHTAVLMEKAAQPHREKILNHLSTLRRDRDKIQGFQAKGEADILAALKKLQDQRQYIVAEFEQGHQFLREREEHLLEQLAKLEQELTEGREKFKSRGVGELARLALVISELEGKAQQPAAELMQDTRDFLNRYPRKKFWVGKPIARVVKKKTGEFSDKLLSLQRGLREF

[3] = biological target: T3, GST-TRIM26 N-terminal fragment (aa1-150) (UniProt Q12899); experiment: as above
T3 sequence: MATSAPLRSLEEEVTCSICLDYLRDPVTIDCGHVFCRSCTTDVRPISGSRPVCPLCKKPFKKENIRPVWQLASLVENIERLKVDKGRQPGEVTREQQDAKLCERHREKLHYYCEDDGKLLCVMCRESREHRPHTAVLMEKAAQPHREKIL

[4] = biological target: T4, GST-TRIM26 C-terminal PRYSPRY domain (aa301-539) (UniProt Q12899); experiment: as above
T4 sequence: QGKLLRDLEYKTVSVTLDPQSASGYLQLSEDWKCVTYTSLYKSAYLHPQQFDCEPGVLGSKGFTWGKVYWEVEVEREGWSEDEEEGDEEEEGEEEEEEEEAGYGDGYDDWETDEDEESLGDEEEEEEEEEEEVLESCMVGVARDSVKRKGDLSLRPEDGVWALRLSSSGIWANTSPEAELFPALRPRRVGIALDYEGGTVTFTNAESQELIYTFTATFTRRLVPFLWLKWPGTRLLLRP

[5] = biological target: T5, Flag-TRIM26 (UniProt Q12899); experiment: co-IP; HCT116 p53+/+ cells transfected with GFP-p53 or HA-MDM2 and Flag-TRIM26 for 48 h, cell fractionation; nuclear fraction, Flag beads, Western blot
T5 sequence: T1 sequence

[6] = biological target: T5, Flag-TRIM26; experiment: co-IP; HCT116 p53+/+ cells transfected with GFP-p53 or HA-MDM2 and Flag-TRIM26 for 48 h, cell fractionation; cytosolic fraction, Flag beads, Western blot

## MDM2 (endogenous) (from UniProt Q00987)
[1]
  binding: binds

## His-MDM2 (from UniProt Q00987)
[2]
  binding: binds
[3]
  binding: no binding
[4]
  binding: no binding

## HA-MDM2 (from UniProt Q00987)
[5]
  binding: no binding (only nuclear fraction)
[6]
  binding: binds

No constants are given. Whether binding was seen depends on the method and setting. For part of these data: A result given as binding can be weak or reduced; the word gives no strength. For part of these data: Sequences can lack the tags named with a protein. For part of these data: In cells and extracts the contact can be indirect.
